Drawing on the supplement of paper PMC10849652, this text covers log2 fold change for 33 targets.

The chains behind the UniProt entries cited, without tags or fusion partners. Where a name states a change or a piece, a line headed by the entry shows the natural chain unless it says otherwise.
UniProt Q14160: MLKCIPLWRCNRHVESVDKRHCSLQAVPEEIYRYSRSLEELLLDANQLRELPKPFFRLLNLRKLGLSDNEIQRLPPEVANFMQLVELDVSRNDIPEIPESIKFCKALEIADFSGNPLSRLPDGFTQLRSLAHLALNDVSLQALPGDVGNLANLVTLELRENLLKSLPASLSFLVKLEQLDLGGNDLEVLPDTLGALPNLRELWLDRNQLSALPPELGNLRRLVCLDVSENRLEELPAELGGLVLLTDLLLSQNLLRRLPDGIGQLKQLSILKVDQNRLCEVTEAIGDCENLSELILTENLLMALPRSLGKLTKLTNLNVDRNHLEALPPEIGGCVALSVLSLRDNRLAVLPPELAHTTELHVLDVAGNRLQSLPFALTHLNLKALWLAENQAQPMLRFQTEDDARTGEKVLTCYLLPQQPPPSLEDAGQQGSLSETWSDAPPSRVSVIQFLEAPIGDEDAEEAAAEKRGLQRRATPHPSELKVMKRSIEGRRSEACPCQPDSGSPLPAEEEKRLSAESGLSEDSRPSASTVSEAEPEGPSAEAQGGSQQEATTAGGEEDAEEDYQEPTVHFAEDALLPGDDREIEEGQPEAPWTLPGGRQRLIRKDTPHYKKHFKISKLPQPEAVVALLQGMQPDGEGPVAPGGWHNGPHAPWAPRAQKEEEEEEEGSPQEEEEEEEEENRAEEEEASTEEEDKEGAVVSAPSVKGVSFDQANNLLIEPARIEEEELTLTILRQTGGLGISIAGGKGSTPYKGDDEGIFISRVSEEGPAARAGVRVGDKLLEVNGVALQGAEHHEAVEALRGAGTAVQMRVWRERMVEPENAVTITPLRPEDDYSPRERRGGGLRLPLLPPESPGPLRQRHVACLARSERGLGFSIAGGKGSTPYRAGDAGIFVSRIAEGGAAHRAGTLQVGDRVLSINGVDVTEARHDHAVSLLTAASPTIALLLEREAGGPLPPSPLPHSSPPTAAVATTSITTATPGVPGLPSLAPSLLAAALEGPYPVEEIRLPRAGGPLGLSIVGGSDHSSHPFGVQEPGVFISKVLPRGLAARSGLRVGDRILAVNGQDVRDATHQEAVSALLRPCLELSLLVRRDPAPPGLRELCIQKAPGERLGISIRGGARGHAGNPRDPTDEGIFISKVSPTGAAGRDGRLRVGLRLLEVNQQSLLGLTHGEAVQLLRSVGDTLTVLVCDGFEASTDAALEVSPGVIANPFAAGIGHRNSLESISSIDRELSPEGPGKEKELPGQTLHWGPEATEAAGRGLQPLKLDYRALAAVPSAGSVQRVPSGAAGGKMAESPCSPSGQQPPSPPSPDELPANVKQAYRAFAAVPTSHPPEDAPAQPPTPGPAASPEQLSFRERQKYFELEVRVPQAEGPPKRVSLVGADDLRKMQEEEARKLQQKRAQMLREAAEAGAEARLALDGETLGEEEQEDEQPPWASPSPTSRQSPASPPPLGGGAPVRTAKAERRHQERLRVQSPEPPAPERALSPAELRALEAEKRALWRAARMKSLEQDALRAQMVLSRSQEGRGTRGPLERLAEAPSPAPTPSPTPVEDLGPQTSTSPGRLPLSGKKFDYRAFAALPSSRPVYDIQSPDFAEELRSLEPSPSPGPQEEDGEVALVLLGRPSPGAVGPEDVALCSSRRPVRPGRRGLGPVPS
UniProt O94855: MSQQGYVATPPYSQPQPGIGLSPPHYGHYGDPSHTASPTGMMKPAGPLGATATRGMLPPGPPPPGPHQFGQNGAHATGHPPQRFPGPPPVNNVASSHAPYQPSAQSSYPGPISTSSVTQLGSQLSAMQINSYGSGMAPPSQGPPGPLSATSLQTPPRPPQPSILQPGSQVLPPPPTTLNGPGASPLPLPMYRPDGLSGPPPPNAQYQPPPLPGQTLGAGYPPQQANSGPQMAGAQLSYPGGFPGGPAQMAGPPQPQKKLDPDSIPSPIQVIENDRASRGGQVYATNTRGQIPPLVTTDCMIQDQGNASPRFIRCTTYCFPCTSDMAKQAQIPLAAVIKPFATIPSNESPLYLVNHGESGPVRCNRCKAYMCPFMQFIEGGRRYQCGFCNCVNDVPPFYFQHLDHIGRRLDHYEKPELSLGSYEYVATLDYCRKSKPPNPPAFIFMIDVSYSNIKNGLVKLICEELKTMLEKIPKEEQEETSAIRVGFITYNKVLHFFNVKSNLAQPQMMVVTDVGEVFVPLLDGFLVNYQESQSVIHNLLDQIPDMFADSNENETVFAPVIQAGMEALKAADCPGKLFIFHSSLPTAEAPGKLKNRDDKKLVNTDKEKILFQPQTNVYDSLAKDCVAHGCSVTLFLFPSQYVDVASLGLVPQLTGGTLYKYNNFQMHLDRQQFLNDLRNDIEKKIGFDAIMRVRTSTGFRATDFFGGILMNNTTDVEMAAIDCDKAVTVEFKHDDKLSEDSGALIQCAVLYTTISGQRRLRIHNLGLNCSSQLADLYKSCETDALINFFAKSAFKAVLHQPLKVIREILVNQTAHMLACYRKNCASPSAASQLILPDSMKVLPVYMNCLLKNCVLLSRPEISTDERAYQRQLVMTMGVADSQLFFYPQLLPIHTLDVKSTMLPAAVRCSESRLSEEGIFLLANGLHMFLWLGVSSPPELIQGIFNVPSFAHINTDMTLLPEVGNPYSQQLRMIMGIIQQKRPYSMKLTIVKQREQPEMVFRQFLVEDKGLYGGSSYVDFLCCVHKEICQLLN
UniProt Q0VDG4: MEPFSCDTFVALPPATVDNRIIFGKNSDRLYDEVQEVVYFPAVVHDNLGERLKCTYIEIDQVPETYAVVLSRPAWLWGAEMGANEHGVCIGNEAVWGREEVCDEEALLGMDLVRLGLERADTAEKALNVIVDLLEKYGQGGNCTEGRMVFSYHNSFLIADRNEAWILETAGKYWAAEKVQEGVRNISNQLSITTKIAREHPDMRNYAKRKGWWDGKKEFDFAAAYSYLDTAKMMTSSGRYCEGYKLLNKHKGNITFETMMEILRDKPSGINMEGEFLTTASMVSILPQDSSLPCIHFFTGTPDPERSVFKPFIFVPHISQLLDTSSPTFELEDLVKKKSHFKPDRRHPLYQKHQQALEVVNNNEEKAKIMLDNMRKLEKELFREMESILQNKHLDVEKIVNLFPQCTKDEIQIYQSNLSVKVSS
UniProt Q96GA7: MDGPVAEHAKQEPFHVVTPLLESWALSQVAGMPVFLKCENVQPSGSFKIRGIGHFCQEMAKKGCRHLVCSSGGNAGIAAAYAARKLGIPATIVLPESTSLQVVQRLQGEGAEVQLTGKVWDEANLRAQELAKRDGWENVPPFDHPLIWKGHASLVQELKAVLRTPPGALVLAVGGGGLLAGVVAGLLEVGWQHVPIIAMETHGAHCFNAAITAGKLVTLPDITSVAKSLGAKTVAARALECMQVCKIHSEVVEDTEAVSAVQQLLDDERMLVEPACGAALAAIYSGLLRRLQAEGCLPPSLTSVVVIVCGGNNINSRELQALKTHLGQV
UniProt Q9Y6B6: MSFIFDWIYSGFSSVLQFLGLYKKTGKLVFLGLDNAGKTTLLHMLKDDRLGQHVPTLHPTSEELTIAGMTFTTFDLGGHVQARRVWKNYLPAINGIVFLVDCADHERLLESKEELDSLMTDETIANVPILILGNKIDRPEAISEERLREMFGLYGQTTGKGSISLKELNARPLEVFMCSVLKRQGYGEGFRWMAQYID
UniProt Q86SQ7: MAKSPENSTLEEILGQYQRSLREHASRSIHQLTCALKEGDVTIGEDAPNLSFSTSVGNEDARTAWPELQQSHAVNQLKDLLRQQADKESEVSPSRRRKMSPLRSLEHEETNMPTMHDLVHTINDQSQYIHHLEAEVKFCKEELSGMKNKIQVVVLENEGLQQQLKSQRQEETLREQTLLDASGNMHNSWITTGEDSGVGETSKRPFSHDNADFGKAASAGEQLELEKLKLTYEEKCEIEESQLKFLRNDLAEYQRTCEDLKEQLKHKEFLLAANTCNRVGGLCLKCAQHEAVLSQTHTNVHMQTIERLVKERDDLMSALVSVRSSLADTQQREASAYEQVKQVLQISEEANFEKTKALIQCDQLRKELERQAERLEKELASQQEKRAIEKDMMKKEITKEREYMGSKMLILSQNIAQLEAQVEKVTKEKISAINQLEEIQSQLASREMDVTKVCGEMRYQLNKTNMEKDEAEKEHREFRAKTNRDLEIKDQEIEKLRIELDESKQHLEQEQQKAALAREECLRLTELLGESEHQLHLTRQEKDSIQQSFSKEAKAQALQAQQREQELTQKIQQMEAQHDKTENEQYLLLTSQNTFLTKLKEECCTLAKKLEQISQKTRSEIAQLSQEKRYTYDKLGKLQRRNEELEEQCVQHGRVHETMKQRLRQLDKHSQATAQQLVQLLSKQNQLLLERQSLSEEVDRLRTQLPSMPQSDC
UniProt Q15019: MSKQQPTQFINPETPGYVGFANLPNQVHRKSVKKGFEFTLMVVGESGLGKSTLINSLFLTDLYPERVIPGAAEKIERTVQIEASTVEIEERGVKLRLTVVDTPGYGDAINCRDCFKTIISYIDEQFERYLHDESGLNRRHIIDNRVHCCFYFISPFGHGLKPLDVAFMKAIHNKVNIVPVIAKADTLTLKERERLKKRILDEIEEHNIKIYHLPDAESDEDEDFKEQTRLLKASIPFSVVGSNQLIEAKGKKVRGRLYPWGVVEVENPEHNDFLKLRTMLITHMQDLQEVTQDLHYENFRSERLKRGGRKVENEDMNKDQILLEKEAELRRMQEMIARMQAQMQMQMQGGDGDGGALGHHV
UniProt O14828: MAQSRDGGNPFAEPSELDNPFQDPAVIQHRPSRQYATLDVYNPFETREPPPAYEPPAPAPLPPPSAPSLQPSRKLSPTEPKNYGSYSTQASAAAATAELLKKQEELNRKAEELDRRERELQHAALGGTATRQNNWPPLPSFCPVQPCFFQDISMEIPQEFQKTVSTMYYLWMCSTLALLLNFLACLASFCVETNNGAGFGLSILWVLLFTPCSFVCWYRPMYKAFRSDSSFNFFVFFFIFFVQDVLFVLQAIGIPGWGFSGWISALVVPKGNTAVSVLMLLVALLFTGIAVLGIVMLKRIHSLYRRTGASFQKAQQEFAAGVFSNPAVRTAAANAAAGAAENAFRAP
UniProt Q9NVA2: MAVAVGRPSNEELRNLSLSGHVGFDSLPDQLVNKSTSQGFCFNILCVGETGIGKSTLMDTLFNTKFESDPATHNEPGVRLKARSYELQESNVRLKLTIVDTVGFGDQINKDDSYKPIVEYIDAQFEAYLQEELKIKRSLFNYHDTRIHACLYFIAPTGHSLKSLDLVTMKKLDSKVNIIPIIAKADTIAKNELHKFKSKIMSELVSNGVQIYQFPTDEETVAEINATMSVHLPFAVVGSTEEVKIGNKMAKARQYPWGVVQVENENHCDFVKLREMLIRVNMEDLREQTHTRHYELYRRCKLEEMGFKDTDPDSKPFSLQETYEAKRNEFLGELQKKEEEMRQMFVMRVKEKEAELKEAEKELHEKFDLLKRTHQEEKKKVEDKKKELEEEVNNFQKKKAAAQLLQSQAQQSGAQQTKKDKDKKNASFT
UniProt Q96NL6: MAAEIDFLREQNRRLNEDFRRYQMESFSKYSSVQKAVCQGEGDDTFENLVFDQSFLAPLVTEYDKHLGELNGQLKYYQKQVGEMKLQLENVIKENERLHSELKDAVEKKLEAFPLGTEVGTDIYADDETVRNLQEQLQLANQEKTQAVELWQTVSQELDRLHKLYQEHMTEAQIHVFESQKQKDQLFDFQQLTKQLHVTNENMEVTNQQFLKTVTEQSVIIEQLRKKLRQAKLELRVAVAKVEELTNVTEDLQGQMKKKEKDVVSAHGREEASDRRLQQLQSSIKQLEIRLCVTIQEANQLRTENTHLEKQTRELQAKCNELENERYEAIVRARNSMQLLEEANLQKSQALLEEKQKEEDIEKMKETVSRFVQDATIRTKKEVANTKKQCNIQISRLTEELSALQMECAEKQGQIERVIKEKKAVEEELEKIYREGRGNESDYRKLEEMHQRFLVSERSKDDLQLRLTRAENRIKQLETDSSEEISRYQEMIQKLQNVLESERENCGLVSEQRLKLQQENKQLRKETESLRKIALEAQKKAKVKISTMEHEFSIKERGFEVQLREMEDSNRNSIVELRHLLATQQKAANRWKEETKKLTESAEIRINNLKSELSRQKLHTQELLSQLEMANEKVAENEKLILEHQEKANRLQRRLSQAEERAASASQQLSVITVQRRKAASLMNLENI
UniProt P21912: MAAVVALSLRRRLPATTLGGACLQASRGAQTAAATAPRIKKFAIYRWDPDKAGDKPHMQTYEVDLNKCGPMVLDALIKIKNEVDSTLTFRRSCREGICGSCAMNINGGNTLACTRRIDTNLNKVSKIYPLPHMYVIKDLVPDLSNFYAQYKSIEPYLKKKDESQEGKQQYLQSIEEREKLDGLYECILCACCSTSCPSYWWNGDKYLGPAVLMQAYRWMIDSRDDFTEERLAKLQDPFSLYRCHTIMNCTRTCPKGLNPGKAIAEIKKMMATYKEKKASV

The list shows a part of the results.

Compound in the first assay: C1=CC=C(C=C1)C2=NC(=C(N2)C3=CC=NC=C3)C4=CC(=C(C=C4)Cl)O
Kind of assay: log2 fold change, soluble protein after heating vs DMSO (PISA); higher = thermal stabilisation; K562 lysate, 10 uM; active = over 0.2 and 3.5 SD of the protein, either way, in both replicates (recomputed). The gist of the method: (§1)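 Soluble protein was defined as the supernatant remaining after 21,000xg for 90 min, following pooling of heated aliquots and adjustment to 0.5% NP-40 at 4°C. Before that, crude K562 extract at 1 mg/mL protein in PBS pH 7.4 with 1 mM MgCl2 was treated with 10 μM compound for 30 min and heated for 3 min across 48°C-58°C. Quantification used TMTpro 16plex LC-MS/MS with channel sums equalised, and values are log-two fold changes in thermal stability relative to solvent controls from duplicates.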
On to SCRIB (UniProt Q14160), for which the log2 fold change is inactive: -0.027.
On the same count and under the same terms, with SEC23A (UniProt Q15436) the figure was inactive: -0.011; with SEPTIN9 (UniProt Q9UHD8), inactive: -0.012; with SEMA4B (UniProt Q9NPR2), inactive: -0.049.
Consider SDF4 (UniProt Q9BRK5), for which the log2 fold change was inactive: 0.005.
The same measure, in the same setting: with SELENOS (UniProt Q9BQE4) the figure was inactive: -0.016.
Still for that read-out and setting: the result for SCFD1 (UniProt Q8WVM8) reads inactive: -0.035; that for SEC24D isoform 2 (UniProt O94855), inactive: 0.022; that for SELENBP1 isoform 4 (UniProt Q13228), inactive: -0.012.
Still for that read-out and setting: the result for SEC61A1 (UniProt P61619) reads inactive: -0.02; that for SEC24C (UniProt P53992), inactive: 0.007; that for SAP30BP (UniProt Q9UHR5), inactive: 0.008.
As for SCRN3 (UniProt Q0VDG4), the log2 fold change was inactive: 0.02.
Same read-out and setting: the result for SDSL (UniProt Q96GA7) reads inactive: -0.005; that for SEC63 (UniProt Q9UGP8), inactive: -0.008.
Still for that read-out and setting: with SARG (UniProt Q9BW04) the figure was inactive: -0.003; with SAAL1 (UniProt Q96ER3), inactive: 0.031; with SAR1B (UniProt Q9Y6B6), inactive: -0.045.
For SAMSN1 (UniProt Q9NSI8), the log2 fold change was inactive: -0.002.
Still for that read-out and setting: the result for SDCCAG8 (UniProt Q86SQ7) reads inactive: 0.025; that for SCYL1 (UniProt Q96KG9), inactive: 0.006.
The same measure, in the same setting: with SDAD1 (UniProt Q9NVU7) the figure was inactive: 0.021.
For the target SEPTIN2 isoform 2 (UniProt Q15019), the log2 fold change is inactive: 0.008.
The same measure, in the same setting: with SCAMP3 isoform 2 (UniProt O14828) the figure was inactive: 0.154; with SELENOF (UniProt O60613), inactive: 0.006; with SASS6 (UniProt Q6UVJ0), inactive: 0.015.
SCFD2 (UniProt Q8WU76): the log2 fold change was inactive: -0.008.
Still for that read-out and setting: the result for SEPTIN11 isoform 2 (UniProt Q9NVA2) reads inactive: 0.002; that for SCLT1 (UniProt Q96NL6), inactive: 0.012.
Still for that read-out and setting: with SCARB1 isoform 2 (UniProt Q8WTV0) the figure was inactive: -0.023; with SENP5 (UniProt Q96HI0), inactive: 0.05; with SDHB (UniProt P21912), inactive: 0.
Still for that read-out and setting: the result for SCML2 (UniProt Q9UQR0) reads inactive: 0.

Compound in another assay: C1=CC=C2C(=C1)C3=NNC4=CC=CC(=C43)C2=O
The description is as above. The procedure, abridged:
as §1
As for SCRIB (UniProt Q14160), the log2 fold change is inactive: 0.023.
Still for that read-out and setting: with SEC23A (UniProt Q15436) the figure was inactive: -0.014; with SEPTIN9 (UniProt Q9UHD8), inactive: 0.101.
Consider SEMA4B (UniProt Q9NPR2), for which the log2 fold change was inactive: -0.342.
Consider SDF4 (UniProt Q9BRK5), for which the log2 fold change was inactive: 0.009.
SELENOS (UniProt Q9BQE4): the log2 fold change is inactive: 0.011.
Still for that read-out and setting: with SCFD1 (UniProt Q8WVM8) the figure was inactive: -0.04; with SEC24D isoform 2 (UniProt O94855), inactive: 0.001.
Still for that read-out and setting: the result for SELENBP1 isoform 4 (UniProt Q13228) reads inactive: 0.029; that for SEC61A1 (UniProt P61619), inactive: -0.037; that for SEC24C (UniProt P53992), inactive: -0.026.
Consider SAP30BP (UniProt Q9UHR5), for which the log2 fold change was inactive: -0.011.
The same measure, in the same setting: with SCRN3 (UniProt Q0VDG4) the figure was inactive: 0.013; with SDSL (UniProt Q96GA7), inactive: 0.063.
Same read-out and setting: with SEC63 (UniProt Q9UGP8) the figure was inactive: -0.034; with SARG (UniProt Q9BW04), inactive: -0.156; with SAAL1 (UniProt Q96ER3), inactive: -0.006.
On the same count and under the same terms, with SAR1B (UniProt Q9Y6B6) the figure was inactive: 0.029; with SAMSN1 (UniProt Q9NSI8), inactive: 0.017; with SDCCAG8 (UniProt Q86SQ7), inactive: -0.017.
Turning to SCYL1 (UniProt Q96KG9), the log2 fold change is inactive: 0.023.
On the same count and under the same terms, with SDAD1 (UniProt Q9NVU7) the figure was inactive: 0.014; with SEPTIN2 isoform 2 (UniProt Q15019), inactive: -0.003.
Turning to SCAMP3 isoform 2 (UniProt O14828), the log2 fold change is inactive: 0.028.
On the same count and under the same terms, with SELENOF (UniProt O60613) the figure was inactive: 0.044; with SASS6 (UniProt Q6UVJ0), inactive: -0.023; with SCFD2 (UniProt Q8WU76), inactive: -0.057.
Turning to SEPTIN11 isoform 2 (UniProt Q9NVA2), the log2 fold change was inactive: -0.011.
Same read-out and setting: with SCLT1 (UniProt Q96NL6) the figure was inactive: 0.099.
On the same count and under the same terms, with SCARB1 isoform 2 (UniProt Q8WTV0) the figure was inactive: -0.002; with SENP5 (UniProt Q96HI0), inactive: 0.068; with SDHB (UniProt P21912), inactive: 0.075.
Still for that read-out and setting: with SCML2 (UniProt Q9UQR0) the figure was inactive: -0.028.

Compound in the next assay: C1CCN(C1)C(=O)NC2=CC=CC(=C2)NC3=NC=C(C(=N3)NCCC4=CN=CN4)Br
The description is as above. The procedure, abridged: as §1
For the target SCRIB (UniProt Q14160), the log2 fold change was inactive: -0.01.
As to SEC23A (UniProt Q15436), the log2 fold change was inactive: -0.044.
SEPTIN9 (UniProt Q9UHD8): the log2 fold change was inactive: 0.008.
Same read-out and setting: the result for SEMA4B (UniProt Q9NPR2) reads inactive: 0.008; that for SDF4 (UniProt Q9BRK5), inactive: 0.018.
Turning to SELENOS (UniProt Q9BQE4), the log2 fold change was inactive: 0.005.
Same read-out and setting: the result for SCFD1 (UniProt Q8WVM8) reads inactive: -0.013.
For the target SEC24D isoform 2 (UniProt O94855), the log2 fold change is inactive: -0.013.
Consider SELENBP1 isoform 4 (UniProt Q13228), for which the log2 fold change is inactive: 0.015.
The same measure, in the same setting: the result for SEC61A1 (UniProt P61619) reads inactive: -0.069.
On the same count and under the same terms, with SEC24C (UniProt P53992) the figure was inactive: -0.013; with SAP30BP (UniProt Q9UHR5), inactive: -0.007; with SCRN3 (UniProt Q0VDG4), inactive: 0.004.
As for SDSL (UniProt Q96GA7), the log2 fold change was inactive: -0.009.
On the same count and under the same terms, with SEC63 (UniProt Q9UGP8) the figure was inactive: -0.02; with SARG (UniProt Q9BW04), inactive: 0; with SAAL1 (UniProt Q96ER3), inactive: -0.031.
On the same count and under the same terms, with SAR1B (UniProt Q9Y6B6) the figure was inactive: -0.126.
Turning to SAMSN1 (UniProt Q9NSI8), the log2 fold change is inactive: -0.011.
As for SDCCAG8 (UniProt Q86SQ7), the log2 fold change is inactive: -0.019.
Still for that read-out and setting: with SCYL1 (UniProt Q96KG9) the figure was inactive: -0.079; with SDAD1 (UniProt Q9NVU7), inactive: 0.029; with SEPTIN2 isoform 2 (UniProt Q15019), inactive: -0.001.
On the same count and under the same terms, the result for SCAMP3 isoform 2 (UniProt O14828) reads inactive: -0.187.
On the same count and under the same terms, with SELENOF (UniProt O60613) the figure was inactive: 0.09; with SASS6 (UniProt Q6UVJ0), inactive: -0.012.
For SCFD2 (UniProt Q8WU76), the log2 fold change is inactive: -0.021.
The same measure, in the same setting: with SEPTIN11 isoform 2 (UniProt Q9NVA2) the figure was inactive: 0.007; with SCLT1 (UniProt Q96NL6), inactive: -0.076.
Still for that read-out and setting: the result for SCARB1 isoform 2 (UniProt Q8WTV0) reads inactive: 0.017; that for SENP5 (UniProt Q96HI0), inactive: -0.056; that for SDHB (UniProt P21912), inactive: -0.006.
Same read-out and setting: the result for SCML2 (UniProt Q9UQR0) reads inactive: -0.003.
